Assay results: publication PMC11335273
No constants are given. Whether binding was seen depends on the method and setting. Binding seen in cells or lysates may run through a third protein. Some entries that bind do so weakly or less than the wild type.

Sequences of proteins named here, by UniProt entry; tags and fusion partners are left off.
UniProt P78347: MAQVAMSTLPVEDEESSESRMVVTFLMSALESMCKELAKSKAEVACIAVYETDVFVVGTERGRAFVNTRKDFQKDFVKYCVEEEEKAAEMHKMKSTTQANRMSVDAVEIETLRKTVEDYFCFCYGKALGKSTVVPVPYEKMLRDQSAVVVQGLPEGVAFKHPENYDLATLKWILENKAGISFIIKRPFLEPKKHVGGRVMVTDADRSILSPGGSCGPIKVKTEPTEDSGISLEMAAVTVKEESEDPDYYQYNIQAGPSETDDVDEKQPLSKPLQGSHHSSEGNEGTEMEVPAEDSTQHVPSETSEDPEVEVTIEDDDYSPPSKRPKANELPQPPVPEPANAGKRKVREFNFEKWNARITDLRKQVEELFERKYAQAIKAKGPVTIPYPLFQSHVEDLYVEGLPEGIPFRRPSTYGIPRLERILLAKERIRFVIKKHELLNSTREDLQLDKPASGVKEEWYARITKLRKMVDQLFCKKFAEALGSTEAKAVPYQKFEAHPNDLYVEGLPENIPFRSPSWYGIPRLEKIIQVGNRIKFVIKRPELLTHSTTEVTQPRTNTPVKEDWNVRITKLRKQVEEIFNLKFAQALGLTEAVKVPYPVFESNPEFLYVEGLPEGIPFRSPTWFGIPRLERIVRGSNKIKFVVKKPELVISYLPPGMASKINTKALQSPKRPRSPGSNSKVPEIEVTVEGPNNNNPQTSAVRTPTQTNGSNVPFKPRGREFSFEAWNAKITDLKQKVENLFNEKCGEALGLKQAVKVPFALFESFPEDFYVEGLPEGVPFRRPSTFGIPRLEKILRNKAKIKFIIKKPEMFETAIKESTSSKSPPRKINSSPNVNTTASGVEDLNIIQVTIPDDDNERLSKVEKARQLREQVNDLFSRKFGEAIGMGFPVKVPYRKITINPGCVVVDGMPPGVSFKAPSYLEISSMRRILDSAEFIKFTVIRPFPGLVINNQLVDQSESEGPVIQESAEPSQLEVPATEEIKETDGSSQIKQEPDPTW

Target: GTF2I-FLAG (human) (UniProt P78347)
Assay: co-IP; FLAG pulldown assay trials: GTF2I-FLAG precipitated by its FLAG tag, endogenous GTF2I found with it; conditions of the trials not told

## endogenous GTF2I (from UniProt P78347 1-998)
  binding: binds
